According to publication PMC8501072:
Positions count from the first letter of the chain named. No constants are given. Whether binding was seen depends on the method and setting. Some results given as binding are weak or reduced against the parent protein; the word gives no strength.

T1: C53 subunit of RNA polymerase III (S. cerevisiae) (UniProt P25441)
T1 sequence: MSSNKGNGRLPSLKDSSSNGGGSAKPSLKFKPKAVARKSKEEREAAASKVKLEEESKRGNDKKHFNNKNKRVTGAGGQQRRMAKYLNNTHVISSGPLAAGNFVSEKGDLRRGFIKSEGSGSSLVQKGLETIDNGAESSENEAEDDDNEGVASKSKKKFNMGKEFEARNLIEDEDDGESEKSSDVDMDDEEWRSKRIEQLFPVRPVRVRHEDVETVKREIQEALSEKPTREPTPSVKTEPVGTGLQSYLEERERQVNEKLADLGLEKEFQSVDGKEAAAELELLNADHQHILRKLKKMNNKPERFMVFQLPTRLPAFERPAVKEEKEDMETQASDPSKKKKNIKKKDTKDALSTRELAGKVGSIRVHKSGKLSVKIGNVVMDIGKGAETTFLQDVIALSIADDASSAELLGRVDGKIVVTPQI

B1: C37 subunit of RNA polymerase III (protein, UniProt P36121 1-282)
chain: MSIDNKLFVTEEDEEDRTQDRADVEDESNDIDMIADENGTNSAIANEQEEKSEEVKAEDDTGEEEEDDPVIEEFPLKISGEEESLHVFQYANRPRLVGRKPAEHPFISAARYKPKSHLWEIDIPLDEQAFYNKDKAESEWNGVNVQTLKGVGVENNGQYAAFVKDMQVYLVPIERVAQLKPFFKYIDDANVTRKQEDARRNPNPSSQRAQVVTMSVKSVNDPSQNRLTGSLLAHKVADEEANIELTWAEGTFEQFKDTIVKEAEDKTLVALEKQEDYIDNLV
B2: C37* (alanine substitutions at positions 226–230) (protein, UniProt P36121 1-282)
chain: B1 chain with R226A, L227A, T228A, G229A, S230A
B3: C37^D (deletion of amino acids 226–230) (protein, UniProt P36121)
chain: MSIDNKLFVTEEDEEDRTQDRADVEDESNDIDMIADENGTNSAIANEQEEKSEEVKAEDDTGEEEEDDPVIEEFPLKISGEEESLHVFQYANRPRLVGRKPAEHPFISAARYKPKSHLWEIDIPLDEQAFYNKDKAESEWNGVNVQTLKGVGVENNGQYAAFVKDMQVYLVPIERVAQLKPFFKYIDDANVTRKQEDARRNPNPSSQRAQVVTMSVKSVNDPSQNLLAHKVADEEANIELTWAEGTFEQFKDTIVKEAEDKTLVALEKQEDYIDNLV

Each binder was assayed against T1, C53 subunit of RNA polymerase III (S. cerevisiae) (assay: co-purification of co-expressed subunits (Ni-NTA, then ion exchange); both subunits co-expressed in E. coli Rosetta (DE3) pLysS; His6-C53 held on Ni-NTA, complexes eluted with 300 mM imidazole in 20 mM K-HEPES pH 8, 200 mM NaCl; after TEV cleavage SP Sepharose and Q-Sepharose (eluted with 300 mM NaCl)).

| binding | Binder |
| --- | --- |
| binds | B1 |
| binds | B2 |
| binds | B3 |
